Measurements taken from the supplement of paper PMC10849652.
The other results are listed elsewhere or left out.

By UniProt entry, the sequences of proteins in these tests, tags left out. Where a name states a change or a piece, a line headed by the entry shows the natural chain unless it says otherwise.
UniProt Q9H900: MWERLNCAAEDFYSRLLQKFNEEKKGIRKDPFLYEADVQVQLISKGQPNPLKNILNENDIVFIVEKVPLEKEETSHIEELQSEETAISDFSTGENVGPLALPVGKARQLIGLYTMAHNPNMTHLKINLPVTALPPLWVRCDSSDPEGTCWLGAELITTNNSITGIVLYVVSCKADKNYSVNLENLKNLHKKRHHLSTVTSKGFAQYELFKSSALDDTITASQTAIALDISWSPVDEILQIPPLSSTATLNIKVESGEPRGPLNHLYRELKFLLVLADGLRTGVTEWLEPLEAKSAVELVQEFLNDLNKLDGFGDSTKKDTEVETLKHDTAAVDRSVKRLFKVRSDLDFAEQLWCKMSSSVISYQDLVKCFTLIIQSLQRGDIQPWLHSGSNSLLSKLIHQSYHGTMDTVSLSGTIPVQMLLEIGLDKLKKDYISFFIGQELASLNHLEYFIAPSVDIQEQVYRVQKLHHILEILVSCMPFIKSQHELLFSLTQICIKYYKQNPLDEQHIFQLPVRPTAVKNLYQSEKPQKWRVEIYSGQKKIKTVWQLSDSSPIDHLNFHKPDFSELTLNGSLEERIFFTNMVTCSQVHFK
UniProt O95229: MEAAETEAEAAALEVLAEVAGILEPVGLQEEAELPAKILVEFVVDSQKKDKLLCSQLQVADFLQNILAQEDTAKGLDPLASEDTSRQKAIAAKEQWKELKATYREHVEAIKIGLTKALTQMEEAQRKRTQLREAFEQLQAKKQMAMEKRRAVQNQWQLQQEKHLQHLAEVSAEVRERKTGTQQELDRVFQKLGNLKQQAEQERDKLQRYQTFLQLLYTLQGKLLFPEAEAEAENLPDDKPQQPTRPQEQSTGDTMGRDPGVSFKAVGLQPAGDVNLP
UniProt Q9C0D3: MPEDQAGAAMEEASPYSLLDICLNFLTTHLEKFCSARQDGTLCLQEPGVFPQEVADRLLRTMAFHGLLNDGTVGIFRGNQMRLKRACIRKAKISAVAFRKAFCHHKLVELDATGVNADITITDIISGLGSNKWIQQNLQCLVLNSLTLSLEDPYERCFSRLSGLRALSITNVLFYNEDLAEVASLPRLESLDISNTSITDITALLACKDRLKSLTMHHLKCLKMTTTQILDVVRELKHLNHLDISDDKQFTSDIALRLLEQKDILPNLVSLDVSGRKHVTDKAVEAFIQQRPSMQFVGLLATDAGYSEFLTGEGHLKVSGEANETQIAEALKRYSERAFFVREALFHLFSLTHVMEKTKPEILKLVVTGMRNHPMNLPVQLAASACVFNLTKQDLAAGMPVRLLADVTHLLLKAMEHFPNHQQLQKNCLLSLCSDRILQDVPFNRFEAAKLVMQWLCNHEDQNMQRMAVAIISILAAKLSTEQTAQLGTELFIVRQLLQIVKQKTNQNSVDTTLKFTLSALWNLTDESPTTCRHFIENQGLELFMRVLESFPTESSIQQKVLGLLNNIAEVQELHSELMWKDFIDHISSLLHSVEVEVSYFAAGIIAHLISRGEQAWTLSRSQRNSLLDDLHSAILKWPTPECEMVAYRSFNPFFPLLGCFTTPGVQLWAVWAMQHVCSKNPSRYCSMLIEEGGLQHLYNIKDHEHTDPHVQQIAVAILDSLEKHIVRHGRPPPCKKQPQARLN
UniProt Q15942: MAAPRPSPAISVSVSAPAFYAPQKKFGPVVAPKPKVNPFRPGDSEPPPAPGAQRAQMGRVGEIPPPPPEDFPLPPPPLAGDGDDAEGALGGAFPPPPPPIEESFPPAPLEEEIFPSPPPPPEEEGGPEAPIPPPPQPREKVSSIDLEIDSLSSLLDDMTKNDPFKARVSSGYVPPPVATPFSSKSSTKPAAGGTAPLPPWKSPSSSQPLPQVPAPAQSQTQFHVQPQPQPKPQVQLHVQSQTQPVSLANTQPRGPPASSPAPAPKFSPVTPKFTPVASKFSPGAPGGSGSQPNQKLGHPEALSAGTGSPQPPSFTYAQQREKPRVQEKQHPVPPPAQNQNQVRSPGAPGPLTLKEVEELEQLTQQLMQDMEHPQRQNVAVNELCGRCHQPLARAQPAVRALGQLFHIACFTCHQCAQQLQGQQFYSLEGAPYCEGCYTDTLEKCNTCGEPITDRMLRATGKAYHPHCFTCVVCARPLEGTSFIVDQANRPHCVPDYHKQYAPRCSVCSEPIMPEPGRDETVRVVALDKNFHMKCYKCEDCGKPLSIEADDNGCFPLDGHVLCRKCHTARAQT
UniProt O43149: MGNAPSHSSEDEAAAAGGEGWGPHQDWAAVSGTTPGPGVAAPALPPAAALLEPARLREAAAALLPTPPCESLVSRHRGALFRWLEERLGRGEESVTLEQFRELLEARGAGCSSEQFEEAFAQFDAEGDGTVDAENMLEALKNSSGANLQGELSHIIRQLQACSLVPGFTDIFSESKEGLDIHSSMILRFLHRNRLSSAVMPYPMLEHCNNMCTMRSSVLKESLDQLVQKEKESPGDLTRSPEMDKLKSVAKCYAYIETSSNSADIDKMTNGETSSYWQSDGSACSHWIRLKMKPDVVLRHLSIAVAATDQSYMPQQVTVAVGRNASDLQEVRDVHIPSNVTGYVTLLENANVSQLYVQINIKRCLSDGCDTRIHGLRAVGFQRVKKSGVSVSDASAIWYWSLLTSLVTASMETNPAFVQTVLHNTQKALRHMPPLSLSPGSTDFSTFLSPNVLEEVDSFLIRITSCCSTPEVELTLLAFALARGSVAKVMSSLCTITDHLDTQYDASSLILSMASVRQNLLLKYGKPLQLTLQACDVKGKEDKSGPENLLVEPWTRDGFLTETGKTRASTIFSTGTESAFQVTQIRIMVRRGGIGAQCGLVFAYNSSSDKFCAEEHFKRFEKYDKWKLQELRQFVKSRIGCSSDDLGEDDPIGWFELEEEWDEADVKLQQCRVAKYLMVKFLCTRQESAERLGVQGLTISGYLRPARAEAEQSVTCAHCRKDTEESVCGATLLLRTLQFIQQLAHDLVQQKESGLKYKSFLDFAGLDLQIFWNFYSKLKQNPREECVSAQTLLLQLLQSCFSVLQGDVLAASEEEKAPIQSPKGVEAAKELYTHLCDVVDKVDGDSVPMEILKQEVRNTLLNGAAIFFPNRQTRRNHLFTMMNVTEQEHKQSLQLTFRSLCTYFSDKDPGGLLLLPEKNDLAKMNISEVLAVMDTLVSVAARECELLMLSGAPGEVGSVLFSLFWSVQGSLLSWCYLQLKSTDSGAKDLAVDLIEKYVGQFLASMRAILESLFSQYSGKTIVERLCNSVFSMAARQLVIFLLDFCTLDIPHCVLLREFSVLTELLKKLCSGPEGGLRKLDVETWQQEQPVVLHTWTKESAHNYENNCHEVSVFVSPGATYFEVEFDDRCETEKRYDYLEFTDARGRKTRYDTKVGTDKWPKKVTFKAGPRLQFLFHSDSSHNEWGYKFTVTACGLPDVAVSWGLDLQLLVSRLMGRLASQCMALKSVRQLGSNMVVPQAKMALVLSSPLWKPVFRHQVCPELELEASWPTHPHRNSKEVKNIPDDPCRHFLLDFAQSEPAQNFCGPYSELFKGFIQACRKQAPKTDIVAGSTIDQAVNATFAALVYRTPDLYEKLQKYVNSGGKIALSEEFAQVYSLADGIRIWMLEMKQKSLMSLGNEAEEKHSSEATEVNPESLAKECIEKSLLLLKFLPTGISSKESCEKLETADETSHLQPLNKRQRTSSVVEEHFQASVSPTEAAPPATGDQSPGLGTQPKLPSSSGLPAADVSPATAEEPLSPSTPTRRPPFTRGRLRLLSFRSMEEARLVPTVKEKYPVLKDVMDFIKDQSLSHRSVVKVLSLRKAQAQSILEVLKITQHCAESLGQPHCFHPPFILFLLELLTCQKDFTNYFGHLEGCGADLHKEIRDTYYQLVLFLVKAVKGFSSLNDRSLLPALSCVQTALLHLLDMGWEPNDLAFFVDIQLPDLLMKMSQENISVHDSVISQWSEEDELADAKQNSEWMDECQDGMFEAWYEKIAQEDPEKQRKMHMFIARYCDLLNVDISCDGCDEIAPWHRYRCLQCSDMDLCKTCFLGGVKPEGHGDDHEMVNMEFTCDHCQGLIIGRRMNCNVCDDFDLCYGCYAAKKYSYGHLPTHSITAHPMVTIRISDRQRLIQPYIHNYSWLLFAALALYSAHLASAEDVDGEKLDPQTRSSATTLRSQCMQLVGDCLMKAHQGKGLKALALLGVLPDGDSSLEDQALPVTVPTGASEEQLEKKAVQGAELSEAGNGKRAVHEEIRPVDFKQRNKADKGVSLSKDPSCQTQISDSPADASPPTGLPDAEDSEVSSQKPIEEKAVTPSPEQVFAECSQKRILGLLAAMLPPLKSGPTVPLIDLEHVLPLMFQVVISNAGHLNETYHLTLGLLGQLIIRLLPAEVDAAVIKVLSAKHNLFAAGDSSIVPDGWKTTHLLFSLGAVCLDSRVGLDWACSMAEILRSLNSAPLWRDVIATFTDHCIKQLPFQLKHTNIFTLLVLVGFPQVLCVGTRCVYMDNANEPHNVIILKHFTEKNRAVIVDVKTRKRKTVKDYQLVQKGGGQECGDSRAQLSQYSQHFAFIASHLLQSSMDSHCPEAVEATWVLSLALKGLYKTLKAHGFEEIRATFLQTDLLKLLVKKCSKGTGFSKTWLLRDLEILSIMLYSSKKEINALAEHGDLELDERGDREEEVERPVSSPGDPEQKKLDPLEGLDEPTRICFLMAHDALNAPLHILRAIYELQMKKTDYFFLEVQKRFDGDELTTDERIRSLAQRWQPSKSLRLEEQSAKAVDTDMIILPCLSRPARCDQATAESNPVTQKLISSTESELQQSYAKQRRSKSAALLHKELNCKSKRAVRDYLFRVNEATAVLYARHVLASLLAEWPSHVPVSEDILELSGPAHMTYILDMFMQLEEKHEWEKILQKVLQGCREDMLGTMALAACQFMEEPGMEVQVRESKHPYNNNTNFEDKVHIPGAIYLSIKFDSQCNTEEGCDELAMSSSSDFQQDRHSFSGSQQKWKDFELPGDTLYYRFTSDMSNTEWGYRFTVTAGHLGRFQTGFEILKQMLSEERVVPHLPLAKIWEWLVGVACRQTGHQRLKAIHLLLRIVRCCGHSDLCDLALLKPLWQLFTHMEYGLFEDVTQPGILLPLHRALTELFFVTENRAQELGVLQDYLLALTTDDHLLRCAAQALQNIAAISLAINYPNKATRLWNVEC
UniProt Q8IYH5: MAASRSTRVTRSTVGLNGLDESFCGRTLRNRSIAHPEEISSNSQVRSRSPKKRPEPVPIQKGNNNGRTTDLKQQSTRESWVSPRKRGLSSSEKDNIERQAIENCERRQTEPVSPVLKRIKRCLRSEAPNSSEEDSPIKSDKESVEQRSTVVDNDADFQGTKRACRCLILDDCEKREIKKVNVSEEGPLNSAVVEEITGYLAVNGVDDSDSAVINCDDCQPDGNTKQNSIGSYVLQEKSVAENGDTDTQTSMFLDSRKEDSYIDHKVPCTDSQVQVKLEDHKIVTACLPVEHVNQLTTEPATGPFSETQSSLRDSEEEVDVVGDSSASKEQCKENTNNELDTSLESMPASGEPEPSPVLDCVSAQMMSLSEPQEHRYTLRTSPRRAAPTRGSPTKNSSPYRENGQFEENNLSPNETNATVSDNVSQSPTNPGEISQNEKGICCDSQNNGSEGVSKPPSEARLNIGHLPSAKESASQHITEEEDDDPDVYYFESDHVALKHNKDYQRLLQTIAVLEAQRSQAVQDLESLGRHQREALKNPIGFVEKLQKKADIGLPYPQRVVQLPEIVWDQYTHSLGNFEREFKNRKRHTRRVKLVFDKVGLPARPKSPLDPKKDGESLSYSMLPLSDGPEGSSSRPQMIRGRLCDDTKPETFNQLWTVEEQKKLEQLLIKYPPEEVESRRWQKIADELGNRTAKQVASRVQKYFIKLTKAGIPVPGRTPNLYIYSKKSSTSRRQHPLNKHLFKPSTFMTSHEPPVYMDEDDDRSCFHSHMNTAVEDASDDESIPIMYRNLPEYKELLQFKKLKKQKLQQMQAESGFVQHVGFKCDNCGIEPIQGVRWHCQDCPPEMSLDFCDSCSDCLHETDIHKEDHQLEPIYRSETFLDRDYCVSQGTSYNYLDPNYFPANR

Key:
Test in all cases: log2 fold change, soluble protein after heating vs DMSO (PISA); higher = thermal stabilisation; K562 cells, 10 uM, 30 min; active = over 0.2 and 3.5 SD of the protein, either way, in both replicates (recomputed)
[1] = target: ZWILCH (UniProt Q9H900)
In short: (§1)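 For each measurement, 10 μM compound was applied for 30 min to K562 cells at 2×10^6 cells/mL. Aliquots were heated for 3 min across 48°C-58°C, pooled, and extracted in PBS with 0.5% NP-40 at 4°C; the supernatant after 21,000xg for 90 min was soluble protein. This was quantified by TMTpro 16plex LC-MS/MS with channel sums equalised, and thermal stability was reported relative to control samples from duplicates, on a log2 fold-change scale.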

[2] = target: ZWINT (UniProt O95229)
In short: as §1

[3] = target: ZYG11B (UniProt Q9C0D3)
In short: as §1

[4] = target: ZYX (UniProt Q15942)
In short: as §1

[5] = target: ZZEF1 (UniProt O43149)
In short: as §1

[6] = target: ZZZ3 (UniProt Q8IYH5)
In short: as §1

In the case of `NC1(Cc2ccc(Cl)cc2)CCN(c2ncnc3[nH]ccc23)CC1`, the log2 fold change [1] is reported as inactive: -0.049, the log2 fold change [2] is reported as inactive: -0.071 and the log2 fold change [3] is reported as inactive: 0.055. The log2 fold change [4] was inactive: 0.03, the log2 fold change [5] was inactive: -0.028 and the log2 fold change [6] was inactive: 0.178.

In the case of `CCn1c(C(=O)N(C2CC2)C2CC2)cc2c3c(ncn3C)c(Nc3cc(C)n(C)n3)nc21`, the log2 fold change [2] is reported as inactive: 0.068, the log2 fold change [4] is reported as inactive: 0.013 and the log2 fold change [5] is reported as inactive: 0.002. The log2 fold change [6] was inactive: -0.048.

In the case of `CC(C)N(C[C@H]1O[C@@H](n2cnc3c(N)ncnc32)[C@H](O)[C@@H]1O)[C@H]1C[C@@H](CCc2nc3cc(C(C)(C)C)ccc3[nH]2)C1` [pinometostat], the log2 fold change [1] is reported as inactive: 0.074, the log2 fold change [2] is reported as inactive: -0.009 and the log2 fold change [3] is reported as inactive: 0.01. For the same molecule, the log2 fold change [4] was inactive: -0.075 and the log2 fold change [5] was inactive: 0.028.

`C#Cc1cccc(Nc2ncnc3cc(OCCOC)c(OCCOC)cc23)c1` [erlotinib] was tested, and the log2 fold change [1] was inactive: 0.009, the log2 fold change [2] was inactive: 0.027 and the log2 fold change [3] was inactive: -0.015. The log2 fold change [4] was inactive: 0.047, the log2 fold change [5] was inactive: -0.011 and the log2 fold change [6] was inactive: 0.024.

`O=C1NC(=NCc2cccs2)S/C1=C\c1ccc2ncccc2c1` was tested, and the log2 fold change [1] was inactive: 0.023, the log2 fold change [2] was inactive: 0.032 and the log2 fold change [3] was inactive: -0.007. The log2 fold change [4] was inactive: -0.032, the log2 fold change [5] was inactive: 0.122 and the log2 fold change [6] was inactive: -0.079.

For `Cc1cccc(-c2[nH]c(C(C)(C)C)nc2-c2ccc3nccnc3c2)n1`, the log2 fold change [1] was inactive: 0, the log2 fold change [2] was inactive: -0.02 and the log2 fold change [3] was inactive: -0.039. For the same molecule, the log2 fold change [4] was inactive: -0.001 and the log2 fold change [5] was inactive: -0.037.

For `CC[C@@H]1C(=O)N(C)c2cnc(Nc3ccc(C(=O)N[C@H]4CC[C@H](N5CCN(CC6CC6)CC5)CC4)cc3OC)nc2N1C(C)C` [volasertib], the log2 fold change [1] was active: -0.266, the log2 fold change [2] was inactive: -0.129 and the log2 fold change [3] was inactive: 0.002. The log2 fold change [4] was inactive: 0.027, the log2 fold change [5] was inactive: -0.038 and the log2 fold change [6] was inactive: -0.175.

`O=C1c2ccccc2-c2n[nH]c3cccc1c23` was tested, and the log2 fold change [1] was inactive: -0.007, the log2 fold change [2] was inactive: -0.132 and the log2 fold change [3] was inactive: -0.033. The log2 fold change [4] was inactive: -0.03, the log2 fold change [5] was inactive: 0.052 and the log2 fold change [6] was inactive: 0.09.

`CS(=O)(=O)CCNCc1ccc(-c2ccc3ncnc(Nc4ccc(OCc5cccc(F)c5)c(Cl)c4)c3c2)o1` [lapatinib] was tested, and the log2 fold change [1] was inactive: 0.018, the log2 fold change [2] was inactive: 0.021 and the log2 fold change [3] was inactive: -0.05. The log2 fold change [4] was inactive: -0.035, the log2 fold change [5] was inactive: -0.008 and the log2 fold change [6] was inactive: 0.021.

With `CN1CCc2c(c3ccccc3n2Cc2ccc(C(=O)NO)cc2)C1` [Tubastatin A] the log2 fold change [1] was inactive: -0.028, the log2 fold change [2] was inactive: 0.1 and the log2 fold change [3] was inactive: 0.04. For the same molecule, the log2 fold change [4] was inactive: -0.015, the log2 fold change [5] was inactive: 0.004 and the log2 fold change [6] was inactive: -0.01.

`NC(=O)c1ccc2nc(-c3ccc(Oc4ccc(Cl)cc4)cc3)[nH]c2c1` was tested, and the log2 fold change [1] was inactive: -0.028, the log2 fold change [2] was inactive: -0.017 and the log2 fold change [3] was inactive: 0. The log2 fold change [4] was inactive: -0.003, the log2 fold change [5] was inactive: -0.01 and the log2 fold change [6] was inactive: 0.085.

In the case of `Cn1cncc1[C@@](N)(c1ccc(Cl)cc1)c1ccc2c(c1)c(-c1cccc(Cl)c1)cc(=O)n2C` [tipifarnib], the log2 fold change [1] is reported as inactive: -0.01, the log2 fold change [2] is reported as inactive: 0.003 and the log2 fold change [3] is reported as inactive: 0.089. The log2 fold change [4] was inactive: -0.011, the log2 fold change [5] was inactive: 0.041 and the log2 fold change [6] was inactive: -0.038.

In the case of `Cc1cc(Nc2cc(N3CCN(C)CC3)nc(Sc3ccc(NC(=O)C4CC4)cc3)n2)n[nH]1` [tozasertib], the log2 fold change [2] is reported as inactive: 0.064, the log2 fold change [4] is reported as inactive: 0.002 and the log2 fold change [5] is reported as inactive: 0.027. For the same molecule, the log2 fold change [6] was inactive: -0.089.

For `COc1cc2nc(-c3cc(F)ccc3O)nc(N[C@@H]3CNC[C@H]3C(C)(C)O)c2cc1OC`, the log2 fold change [1] was inactive: 0.03, the log2 fold change [2] was inactive: 0 and the log2 fold change [3] was inactive: 0.034. The log2 fold change [4] was inactive: -0.038, the log2 fold change [5] was inactive: 0.066 and the log2 fold change [6] was inactive: 0.058.

With `CN1CC[C@H](c2c(O)cc(O)c3c(=O)cc(-c4ccccc4Cl)oc23)[C@H](O)C1` [alvocidib] the log2 fold change [2] was inactive: -0.022, the log2 fold change [4] was inactive: 0.058 and the log2 fold change [5] was inactive: -0.009.

With `CC1=C(C(=O)Nc2cc3cn[nH]c3cc2F)C(c2ccc(C(F)(F)F)cc2)CC(=O)N1` (stereo not given) the log2 fold change [2] was inactive: -0.054, the log2 fold change [4] was inactive: 0.039 and the log2 fold change [5] was inactive: -0.054.

With `C/C(=N\NC(=O)c1cccc(S(=O)(=O)N2CCOCC2)c1)c1cc(Cl)ccc1O` the log2 fold change [1] was inactive: 0.038, the log2 fold change [2] was inactive: -0.215 and the log2 fold change [3] was inactive: 0.006. For the same molecule, the log2 fold change [4] was inactive: -0.04, the log2 fold change [5] was inactive: -0.005 and the log2 fold change [6] was inactive: 0.091.

With `CCN(CC)Cc1ccc2cc(COC(=O)Nc3ccc(C(=O)NO)cc3)ccc2c1` [givinostat] the log2 fold change [1] was inactive: 0.046, the log2 fold change [2] was inactive: 0.032 and the log2 fold change [3] was inactive: -0.009. The log2 fold change [4] was inactive: -0.013, the log2 fold change [5] was inactive: 0.008 and the log2 fold change [6] was inactive: -0.007.

For `Cc1ccc(Sc2cncc3sc(C(N)=O)cc23)cc1`, the log2 fold change [1] was inactive: -0.068, the log2 fold change [2] was inactive: -0.03 and the log2 fold change [3] was inactive: -0.028. The log2 fold change [4] was inactive: 0.051, the log2 fold change [5] was inactive: -0.053 and the log2 fold change [6] was inactive: 0.016.

For `CN(CCOc1ccc(C[C@@H]2SC(=O)NC2=O)cc1)c1ccccn1` (racemic) [rosiglitazone], the log2 fold change [2] was inactive: 0.026, the log2 fold change [4] was inactive: 0.002 and the log2 fold change [5] was inactive: 0.095.

For `NC(=O)c1cnc(N[C@@H]2CCCC[C@@H]2N)nc1Nc1cccc(-n2nccn2)c1`, the log2 fold change [1] was inactive: -0.085, the log2 fold change [2] was inactive: -0.086 and the log2 fold change [3] was inactive: 0.022. The log2 fold change [4] was inactive: 0.019, the log2 fold change [5] was inactive: -0.045 and the log2 fold change [6] was inactive: 0.132.

With `c1cn2cc(-c3ccc4cn[nH]c4c3)nc(Nc3ccc(N4CCOCC4)cc3)c2n1` [entospletinib] the log2 fold change [2] was inactive: -0.019, the log2 fold change [4] was inactive: 0.056 and the log2 fold change [5] was inactive: 0.029.

In the case of `CNC(=O)c1ccccc1Nc1nc(Nc2ccc(N3CCOCC3)cc2OC)ncc1Cl`, the log2 fold change [1] is reported as inactive: 0.027, the log2 fold change [2] is reported as inactive: 0.011 and the log2 fold change [3] is reported as inactive: -0.016. The log2 fold change [4] was inactive: 0.02, the log2 fold change [5] was inactive: 0.061 and the log2 fold change [6] was inactive: -0.06.

`Cn1cc(-c2ccc3nnc(C(F)(F)c4ccc5ncccc5c4)n3n2)cn1` was tested, and the log2 fold change [1] was inactive: -0.069, the log2 fold change [2] was inactive: -0.062 and the log2 fold change [3] was inactive: 0. The log2 fold change [4] was inactive: 0.044 and the log2 fold change [5] was inactive: 0.049.

For `O=C(Nc1cccc(Nc2ncc(Br)c(NCCc3cnc[nH]3)n2)c1)N1CCCC1`, the log2 fold change [1] was inactive: 0.029, the log2 fold change [2] was inactive: 0.045 and the log2 fold change [3] was inactive: -0.026. For the same molecule, the log2 fold change [4] was inactive: 0.025, the log2 fold change [5] was inactive: 0.024 and the log2 fold change [6] was inactive: 0.051.

`C[C@H](Nc1ncnc2nc[nH]c12)c1cc2cccc(Cl)c2c(=O)n1-c1ccccc1` [duvelisib] was tested, and the log2 fold change [2] was inactive: 0.038, the log2 fold change [4] was inactive: -0.021 and the log2 fold change [5] was inactive: 0.014.

For `Cc1ccc2c(=O)c3ccccc3n(CCCN)c2c1C`, the log2 fold change [1] was inactive: 0.013, the log2 fold change [2] was inactive: -0.167 and the log2 fold change [3] was inactive: 0.009. The log2 fold change [4] was inactive: -0.037, the log2 fold change [5] was inactive: -0.032 and the log2 fold change [6] was inactive: -0.03.
